Measurements reported in PubChem BioAssay AID493014 (National Center for Advancing Translational Sciences (NCATS), 2011).
The list shows a part of the results. The main result of the screen is listed elsewhere. These columns were measured beside it and carry no call. The list favours compounds with an active or inconclusive main result. Potencies come from curve fits of mixed quality, noted in brackets.

Assay: qHTS Assay to Find Inhibitors of Chronic Active B-Cell Receptor Signaling
Conditions: ABC-DLBCL IkBa-CBG/CBR reporter, luminescence ratio (green luciferase fused to IkBa over red control in TMD8 lymphoma cells), 4 h
Method in brief: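 Doxycycline induced both beetle luciferases in TMD8 lymphoma cells; IKK-driven degradation limits the IkappaBalpha-fused green signal, while red luminescence normalises for cell number and nonspecific effects. Compounds tested up to 46 uM, 4 hrs.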

[1] = measured here: CBR red luminescence, cell number
[2] = measured here: IkBa-CBG green luminescence

Q: With `CCOC(=O)CN(C(=O)CSc1nnc2c(n1)[nH]c1ccc(OC)cc12)c1ccc(F)cc1` as the molecule, how does the AC50 [1] read?
A: Its AC50 is 6.31 µM [falling, single point].

Q: Which AC50 [1] does the source give for `CC(=O)c1ccc(NC(=O)Nc2ccccc2)cc1` here?
A: The AC50 was 14.6 µM [falling, partial curve, poor fit].

Q: With `Cc1ccc(NC(=S)N/N=C2/CCCc3c(C)cc(C)cc32)cc1` as the molecule, how does the AC50 [1] read?
A: The AC50 was 29.1 µM [rising, single point].

Q: For `Cc1ccc(NC(=O)CSc2nnc(-c3ccccn3)n2N)c(Br)c1`, which AC50 [1] is on record?
A: Its AC50 is 6.31 µM [falling, partial curve].

Q: Which AC50 [1] does the source give for `C=CCOC(=O)C1=C(C)N=C2SCCC(=O)N2C1/C=C/c1ccccc1` (stereo not drawn) here?
A: The AC50 was 35.5 µM [falling, single point].

Q: For `CCC(C)Nc1nc(-c2c[nH]c3ccccc23)cs1` (stereo not drawn), which AC50 [1] is on record?
A: Its AC50 is 1.26 µM [falling, full curve].

Q: For `COC(=O)c1ccc(OCC(=O)c2ccc(O)cc2O)cc1`, which AC50 [1] is on record?
A: The AC50 was 20 µM [falling, single point].

Q: Which AC50 [1] does the source give for `O=C(Nc1cccnc1)Nc1ccc(Cl)cc1Cl` here?
A: Its AC50 is 10 µM [rising, partial curve, poor fit].

Q: For `ClCc1nnc(-c2cc3c(s2)CCCC3)o1`, which AC50 [1] is on record?
A: The AC50 was 22.4 µM [falling, single point].

Q: For `COc1ccc(-c2ccc(=O)n(Cc3cc(=O)n4ccccc4n3)n2)cc1`, which AC50 [1] is on record?
A: Its AC50 is 29.1 µM [rising, single point].

Q: For `O=C(NCc1ccccc1)C(=O)NCC(c1ccco1)N1CCN(c2ccccc2F)CC1` (stereo not drawn), which AC50 [1] is on record?
A: The AC50 was 35.5 µM [rising, single point].

Q: Which AC50 [1] does the source give for `COc1ccc(/C=C(/NC(=O)c2ccccc2)C(=O)NC(Cc2c[nH]c3ccccc23)C(=O)O)cc1` (stereo not drawn) here?
A: Its AC50 is 7.08 µM [falling, partial curve, poor fit].

Q: With `CCN(CC)C(=O)CC(c1cc(OC)c(OC)c(OC)c1)c1c(OC)cc(OC)c2ccc(=O)oc12` (stereo not drawn) as the molecule, how does the AC50 [1] read?
A: Its AC50 is 35.5 µM [rising, single point].

Q: Which AC50 [1] does the source give for `CCOC(=O)C1(CCc2ccccc2)CCN(C(=O)C2=C(C)OCCO2)CC1` here?
A: The AC50 was 35.5 µM [falling, single point].

Q: For `COc1ccc(NC(=O)c2cc3cccc(OC)c3oc2=Nc2ccc(C(=O)O)cc2)cc1OC`, which AC50 [1] is on record?
A: The AC50 was 0.316 µM [falling, full curve].

Q: With `COc1ccc(-c2nc(SCC(=O)NC3CCCCC3)n[nH]2)cc1` as the molecule, how does the AC50 [1] read?
A: Its AC50 is 8.91 µM [falling, partial curve, poor fit].

Q: For `O=c1[nH]c(=O)n(C2C[C@H](O)[C@@H](CO)O2)cc1C(F)(F)F` (stereo partly drawn), which AC50 [1] is on record?
A: The AC50 was 7.31 µM [rising, partial curve, poor fit].

Q: Which AC50 [1] does the source give for `COC(=O)[C@H](CCSC)NC(=O)Nc1ccc(C(C)C)cc1` here?
A: The AC50 was 5.62 µM [rising, partial curve].

Q: Which AC50 [1] does the source give for `CSc1cccc(NC(=O)/C=C/c2cccc(Cl)c2)c1` here?
A: Its AC50 is 23.1 µM [falling, single point].

Q: With `Clc1ccc(OCCOCCN2CCCCC2)c(Br)c1` as the molecule, how does the AC50 [1] read?
A: Its AC50 is 3.55 µM [falling, full curve, poor fit].

Q: For `NS(=O)(=O)c1ccc(CCNC(=O)c2ccccc2-c2ccccc2)cc1`, which AC50 [1] is on record?
A: Its AC50 is 3.55 µM [falling, single point].

Q: And the AC50 [2]?
A: Its AC50 is 3.16 µM [rising, partial curve, poor fit].

Q: With `O=C(NCc1ccccc1)C12CC3CC(CC(C3)C1)C2` as the molecule, how does the AC50 [1] read?
A: The AC50 was 6.51 µM [rising, single point].

Q: With `Cc1ccccc1C(=O)Nc1nnc(CC(=O)N/N=C/c2ccco2)s1` as the molecule, how does the AC50 [1] read?
A: The AC50 was 8.91 µM [falling, partial curve].

Q: Which AC50 [1] does the source give for `Cc1onc(-c2ccccc2Cl)c1C(=O)OCC(=O)Nc1cccc(S(=O)(=O)N(C)C)c1` here?
A: Its AC50 is 35.5 µM [falling, single point].

Q: For `O=C(Nc1ccccc1)N1CCCN(c2ccc(C(F)(F)F)cn2)CC1`, which AC50 [1] is on record?
A: Its AC50 is 8.91 µM [rising, partial curve, poor fit].

Q: With `Oc1ccccc1N=Nc1nc(-c2ccccc2)c(-c2ccccc2)[nH]1` as the molecule, how does the AC50 [1] read?
A: The AC50 was 29.1 µM [falling, single point].

Q: For `O=C(NCc1ccco1)c1cccc2c1C(=O)c1ccc(/C=C/c3ccccc3)cc1S2(=O)=O`, which AC50 [1] is on record?
A: The AC50 was 10.3 µM [falling, partial curve].

Q: For `Cc1csc(NC(=O)CCC(=O)N(CC(=O)NC2CCCC2)c2ccccc2)n1`, which AC50 [1] is on record?
A: The AC50 was 20 µM [falling, partial curve, poor fit].

Q: With `CC(=O)Nc1ccccc1C(=O)C(=O)Nc1ccc(F)cc1` as the molecule, how does the AC50 [1] read?
A: The AC50 was 3.98 µM [rising, single point].

Q: With `C[C@]12C=CC(=O)C=C1CC[C@@H]1[C@@H]2[C@@H](O)C[C@@]2(C)[C@H]1CC[C@]2(O)C(=O)CO` as the molecule, how does the AC50 [2] read?
A: The AC50 was 0.631 µM [falling, partial curve, poor fit].

Q: Which AC50 [1] does the source give for `O=c1[nH]n(-c2ncnc3c2cnn3-c2ccccc2)c(=O)c2ccccc12` here?
A: The AC50 was 12.6 µM [falling, single point].

Q: Which AC50 [1] does the source give for `COc1cc(OC)c2c(c1)C(=O)c1cc(OC)cc(OC)c1C2=O` here?
A: The AC50 was 0.355 µM [falling, full curve].

Q: For `CCOC(=O)c1c(SCC(=O)Nc2nc(C)cs2)nc(=O)[nH]c1C`, which AC50 [1] is on record?
A: Its AC50 is 3.55 µM [falling, partial curve, poor fit].

Q: With `Cc1cc(NC(=O)c2ccccc2C)no1` as the molecule, how does the AC50 [1] read?
A: Its AC50 is 10 µM [falling, partial curve].

Q: For `Cc1nc(NC(=O)/C=C/c2ccccc2)sc1C(=O)N(C)C`, which AC50 [1] is on record?
A: The AC50 was 1.46 µM [rising, partial curve, poor fit].

Q: With `O=C1C2CC=CCC2C(=O)N1c1n[nH]c(CCc2ccccc2)n1` (stereo not drawn) as the molecule, how does the AC50 [1] read?
A: Its AC50 is 18.4 µM [rising, single point].

Q: With `CCC(C)[C@@H](NC(=O)OC(C)(C)C)c1nnc(S(=O)(=O)Cc2cccc(C)c2)o1` (stereo partly drawn) as the molecule, how does the AC50 [1] read?
A: Its AC50 is 7.94 µM [falling, partial curve].

Q: Which AC50 [1] does the source give for `CCC(=O)NC(=S)Nc1cccc(Cl)c1N1CCCCC1` here?
A: Its AC50 is 25.1 µM [rising, single point].

Q: And the AC50 [2]?
A: The AC50 was 31.6 µM [falling, single point].

Q: Which AC50 [1] does the source give for `Nc1[nH]nc2nc(NCc3ccccc3)c3c(c12)CCN(Cc1ccccc1)C3` here?
A: The AC50 was 3.98 µM [rising, full curve, poor fit].

Q: Which AC50 [1] does the source give for `Cc1nc(-c2coc3cc(OCC(=O)O)ccc3c2=O)cs1` here?
A: The AC50 was 20 µM [falling, single point].

Q: For `CN1CCN(C(=O)/C=C\c2ccc(Cl)cc2)CC1`, which AC50 [1] is on record?
A: Its AC50 is 4.61 µM [rising, full curve, poor fit].

Q: With `O=C(CSc1nncs1)Nc1ccc2c(c1)OCCO2` as the molecule, how does the AC50 [1] read?
A: The AC50 was 11.6 µM [falling, partial curve].

Q: For `COC(CNC(=O)c1ccc2nc3ccccc3c(=O)n2c1)OC`, which AC50 [1] is on record?
A: The AC50 was 1.78 µM [falling, full curve, poor fit].

Q: With `Cc1ccc(-n2c3c(cc(C(=O)Nc4cccc(C)n4)c2=O)C(=O)CCC3)cc1` as the molecule, how does the AC50 [1] read?
A: Its AC50 is 0.13 µM [falling, full curve, poor fit].

Q: For `C(=N\Nc1nc2ccccc2s1)/c1ccco1`, which AC50 [1] is on record?
A: Its AC50 is 11.2 µM [falling, partial curve].

Q: With `CC1CCCCC1NC(=O)Cc1ccc(S(=O)(=O)N2CCOCC2)s1` (stereo not drawn) as the molecule, how does the AC50 [1] read?
A: The AC50 was 2.06 µM [rising, partial curve].

Q: For `Cc1ccc(-c2nc3ccsc3c(=O)o2)cc1`, which AC50 [1] is on record?
A: The AC50 was 0.708 µM [falling, full curve, poor fit].

Q: For `COc1ccc(/C(C)=N/NC(=S)Nc2cc(C)ccc2C)cc1`, which AC50 [1] is on record?
A: The AC50 was 22.4 µM [falling, partial curve, poor fit].

Q: What about the AC50 [2] of the same molecule?
A: Its AC50 is 28.2 µM [falling, single point].

Q: With `C[C@]12c3[nH]c4ccc(Cl)cc4c3CCN1C(=O)[C@@H](CC(=O)NCCC1=CCCCC1)C[C@@H]2C(=O)N1CCCCC1` as the molecule, how does the AC50 [1] read?
A: The AC50 was 3.26 µM [rising, partial curve, poor fit].

Q: For `CCOC(=O)c1ccc(CSC(=N)N)o1`, which AC50 [1] is on record?
A: Its AC50 is 7.94 µM [falling, partial curve].

Q: Which AC50 [1] does the source give for `Cc1cccc(N2C(=O)c3cccc4c(N(C)CCO)ccc(c34)C2=O)c1` here?
A: Its AC50 is 22.4 µM [falling, partial curve, poor fit].

Q: With `C/C(CC(=O)Nc1cccc2c1CCCC2)=N\NC(=O)c1cccc2ccccc12` as the molecule, how does the AC50 [1] read?
A: The AC50 was 9.2 µM [falling, partial curve, poor fit].

Q: For `COc1ccc2cc(CN(CC3CCCO3)S(=O)(=O)c3ccccc3Cl)c(=O)[nH]c2c1` (stereo not drawn), which AC50 [1] is on record?
A: Its AC50 is 10.3 µM [falling, partial curve].

Q: For `COc1ccc(C2CC(c3ccccc3)n3nnnc3N2)cc1` (stereo not drawn), which AC50 [1] is on record?
A: The AC50 was 7.31 µM [rising, partial curve, poor fit].

Q: What does the source list for `CC(C)C(C)NC(=O)COc1ncnc2ccccc12` (stereo not drawn)?
A: AC50 [1]: 20.6 µM [falling, single point]; AC50 [2]: 18.4 µM [rising, partial curve, poor fit]

Q: With `O=C(Nc1ccc(Cl)cc1)N1CCOC12CCC1(CC2)OCCO1` as the molecule, how does the AC50 [1] read?
A: Its AC50 is 20 µM [rising, single point].

Q: Which AC50 [1] does the source give for `COCc1ccc(C(=O)N2CCCC(C(=O)c3cc(F)ccc3F)C2)s1` (stereo not drawn) here?
A: Its AC50 is 17.8 µM [rising, single point].

Q: Which AC50 [1] does the source give for `O=c1[nH]cc(F)c(=O)[nH]1` here?
A: The AC50 was 29.1 µM [rising, partial curve, poor fit].

Q: Which AC50 [1] does the source give for `Cc1ccc(C(=O)N2CCCC(CCC(=O)NCc3ccccc3F)C2)cn1` (stereo not drawn) here?
A: The AC50 was 5.62 µM [rising, partial curve, poor fit].

Q: With `Cc1[nH]c2ccccc2c1C(=O)CCl` as the molecule, how does the AC50 [1] read?
A: Its AC50 is 31.6 µM [rising, single point].

Q: And the AC50 [2]?
A: Its AC50 is 22.4 µM [falling, single point].

Q: With `O=C(c1cc2nc(-c3ccco3)cc(C(F)(F)F)n2n1)N1CCN(c2ccccn2)CC1` as the molecule, how does the AC50 [1] read?
A: The AC50 was 6.51 µM [falling, partial curve, poor fit].

Q: Which AC50 [1] does the source give for `COc1cc(C2C(C#N)=C(N)Oc3cc(N(C)C)ccc32)cc2c1OCO2` (stereo not drawn) here?
A: Its AC50 is 2 µM [rising, partial curve, poor fit].

Q: And the AC50 [2]?
A: Its AC50 is 0.562 µM [falling, full curve, poor fit].
